Source: article doi:10.1101/161430v2 (biorxiv, 2019)

Columns and labels:
Assay type in all cases: biochemical
[1] = target: human carboxylesterase 1 (CES1, hCES1) (Homo sapiens, UniProt P23141); test: competition with 4-nitrophenyl acetate, […] nm; conditions: 200 uM 4-nitrophenyl acetate, pH 7.5
[2] = target: human carboxylesterase 2 (CES2, hCES2) (Homo sapiens, UniProt O00748); test: competition with 4-nitrophenyl acetate, […] nm; conditions: 100 uM 4-nitrophenyl acetate, pH 7.5
[3] = target: human AChE (acetylcholinesterase) (Homo sapiens, UniProt P22303); test: Ellman assay, […] nm; conditions: 100 uM acetylthiocholine, 300 uM DTNB, pH 7.5

Compound `OB(O)c1cc(Br)cc(OCc2ccccc2)c1` has a Ki [1] of 1.1 nM, a Ki [2] of 2.2 nM and a Ki [3] of 14000 nM.

Structures were worked out from names or drawings and are uncertain.
